Results deposited as PubChem BioAssay AID743454 (Peter MacCallum Cancer Centre, 2014)
In all, the deposit lists about 18,000 reagents; below is a part drawn at random. In the full data, 450 (2.5%) were called active. 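Single biological run; no consistent viability z cut-off exists, so the class columns, not z-scores, define the calls.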

- Assay: 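Search for knock-downs that restore vorinostat killing in resistant colon cancer cells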 (primary screen)
- Cell system: human HCT116-VR colon cancer cells, selected for vorinostat resistance
- Knock-down reagent: siRNA pool against human genes, 40 nM siRNA pool
- Time to read-out: vorinostat for 24 h, read-out about 72 h after transfection
- Challenge: vorinostat at 2.5 µM final
- Read-out: 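Cell viability by CellTiter-Fluor and caspase 3/7 activity by luminescence, each scaled to mock wells per plate, duplicates averaged, then robust z-scored over all plates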
- Scale: viability robust z-score: higher = more viable cells than screen typical; caspase robust z-score: higher = more caspase 3/7 activity than screen typical
- Hit rule: 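Hits are knock-downs in viability class RV1/RV2 or caspase class CA1/CA2, excluding ones that killed cells in the no-drug cell-count arm; hits then retested with single siRNAs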

SLC12A2
- viability hit class: no change
- caspase hit class: no change
- viability robust z-score: 0.88
- caspase robust z-score: 1.11
- call: inactive

PNRC2 (proline rich nuclear receptor coactivator 2)
- viability hit class: no change
- caspase hit class: no change
- viability robust z-score: 0.53
- caspase robust z-score: -0.48
- call: inactive

CFAP410 (cilia and flagella associated protein 410)
- viability hit class: RV2 (reduced viability)
- caspase hit class: no change
- viability robust z-score: -3.7
- caspase robust z-score: 0.11
- call: active

PIN4 (peptidylprolyl cis/trans isomerase, NIMA-interacting 4)
- viability hit class: no change
- caspase hit class: no change
- viability robust z-score: 0.12
- caspase robust z-score: -1.1
- call: inactive

DEFB118 (defensin beta 118)
- viability hit class: no change
- caspase hit class: no change
- viability robust z-score: 0.18
- caspase robust z-score: -0.59
- call: inactive

APBA2 (amyloid beta precursor protein binding family A member 2)
- viability hit class: no change
- caspase hit class: no change
- viability robust z-score: 1.34
- caspase robust z-score: -0.87
- call: inactive

ACAP3 (ArfGAP with coiled-coil, ankyrin repeat and PH domains 3)
- viability hit class: no change
- caspase hit class: no change
- viability robust z-score: -0.19
- caspase robust z-score: -0.5
- call: inactive

2 entries already listed, ordered by “viability robust z-score”, high to low.
APBA2 (amyloid beta precursor protein binding family A member 2)
- viability hit class: no change
- caspase hit class: no change
- viability robust z-score: 1.34
- caspase robust z-score: -0.87
- call: inactive

DEFB118 (defensin beta 118)
- viability hit class: no change
- caspase hit class: no change
- viability robust z-score: 0.18
- caspase robust z-score: -0.59
- call: inactive

The results go on:
PTCD1 (pentatricopeptide repeat domain 1)
- viability hit class: no change
- caspase hit class: no change
- viability robust z-score: 0.34
- caspase robust z-score: -0.25
- call: inactive

TMEM151A (transmembrane protein 151A)
- viability hit class: no change
- caspase hit class: no change
- viability robust z-score: -0.48
- caspase robust z-score: -1.22
- call: inactive

CIMAP1D (CIMAP1 family member D)
- viability hit class: no change
- caspase hit class: no change
- viability robust z-score: 0.67
- caspase robust z-score: -0.51
- call: inactive

IFI27 (interferon alpha inducible protein 27)
- viability hit class: no change
- caspase hit class: no change
- viability robust z-score: 1.12
- caspase robust z-score: 0.69
- call: inactive

SEC61A1 (SEC61 translocon subunit alpha 1)
- viability hit class: no change
- caspase hit class: no change
- viability robust z-score: -1.96
- caspase robust z-score: 1.55
- call: inactive

CFTR (CF transmembrane conductance regulator)
- viability hit class: no change
- caspase hit class: no change
- viability robust z-score: 0.37
- caspase robust z-score: -1.04
- call: inactive

TMPRSS6 (transmembrane serine protease 6)
- viability hit class: no change
- caspase hit class: no change
- viability robust z-score: 1.6
- caspase robust z-score: 0.21
- call: inactive

IRF5 (interferon regulatory factor 5)
- viability hit class: no change
- caspase hit class: no change
- viability robust z-score: 0.6
- caspase robust z-score: 0.7
- call: inactive

CR1 (complement C3b/C4b receptor 1 (Knops blood group))
- viability hit class: no change
- caspase hit class: no change
- viability robust z-score: 1.47
- caspase robust z-score: -0.22
- call: inactive

LTB4R2 (leukotriene B4 receptor 2)
- viability hit class: no change
- caspase hit class: no change
- viability robust z-score: -0.71
- caspase robust z-score: 0.24
- call: inactive

ZBTB14 (zinc finger and BTB domain containing 14)
- viability hit class: no change
- caspase hit class: no change
- viability robust z-score: 0.82
- caspase robust z-score: -0.75
- call: inactive

PARM1 (prostate androgen-regulated mucin-like protein 1)
- viability hit class: no change
- caspase hit class: no change
- viability robust z-score: 0.82
- caspase robust z-score: 1.86
- call: inactive

ZNF268 (zinc finger protein 268)
- viability hit class: no change
- caspase hit class: no change
- viability robust z-score: -0.18
- caspase robust z-score: 0.9
- call: inactive

ARIH2 (ariadne RBR E3 ubiquitin protein ligase 2)
- viability hit class: no change
- caspase hit class: no change
- viability robust z-score: -0.84
- caspase robust z-score: 2.16
- call: inactive
